Results deposited as PubChem BioAssay AID743454 (Peter MacCallum Cancer Centre, 2014)
Here is a random part of about 18,000 reagents tested. Of all reagents, 450 (2.5%) were called active. 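Single biological run; no consistent viability z cut-off exists, so the class columns, not z-scores, define the calls.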 Reagents against one gene are numbered here. No sequences are given here.

- Screen: 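Genes whose loss kills vorinostat-resistant colon cancer cells under vorinostat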 (primary screen)
- Cell system: human HCT116-VR colon cancer cells, selected for vorinostat resistance
- Knock-down reagent: siRNA pool against human genes, 40 nM siRNA pool
- Timing: vorinostat for 24 h, read-out about 72 h after transfection
- Treatment: vorinostat at 2.5 µM final
- Detection: 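Two measures, CellTiter-Fluor viability and luminescent caspase 3/7 activity, each as fold change against same-plate mock wells, mean of duplicates, then screen-wide robust z-score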
- Reading the numbers: viability robust z-score: higher = more viable cells than screen typical; caspase robust z-score: higher = more caspase 3/7 activity than screen typical
- Rule for the call: 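Hits are knock-downs in viability class RV1/RV2 or caspase class CA1/CA2, excluding ones that killed cells in the no-drug cell-count arm; hits then retested with single siRNAs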

gene knocked down	reagent	viability hit class	caspase hit class	viability robust z-score	caspase robust z-score	outcome
SIGLECL1	1	no change	no change	2.33	0.8	inactive
GRPEL1	1	no change	no change	-0.78	0.52	inactive
GYS1	1	no change	no change	1.6	0.06	inactive
BAG3	1	no change	no change	-0.06	-0.7	inactive
MAP9	1	no change	no change	2.43	0.2	inactive
SPECC1L	1	no change	no change	-0.38	0.6	inactive
HOXD1	1	no change	no change	-0.7	-0.29	inactive
RNF114	1	no change	no change	-0.62	1.5	inactive
TMC8	1	no change	no change	-1.22	-0.43	inactive
TMEM38B	1	no change	no change	0.22	-0.88	inactive
DNAH7	1	no change	no change	0.31	0.18	inactive
SCN5A	1	no change	no change	0.76	0.42	inactive
KIRREL2	1	no change	no change	-1.07	-0.32	inactive
MICAL2	1	no change	no change	-0.7	-0.9	inactive
MICAL2	2	no change	no change	0.54	-0.22	inactive
DMP1	1	no change	no change	-0.21	-0.64	inactive
IDS	1	no change	no change	-0.82	-0.84	inactive
ELAC1	1	no change	no change	0.6	-0.24	inactive
IL10	1	no change	no change	0.42	1.8	inactive
THRSP	1	no change	no change	-0.92	4.27	inactive
ZNF92	1	no change	no change	1.36	1.3	inactive
TMEM47	1	no change	no change	0.76	-0.08	inactive
KCNE1	1	no change	CA2 (caspase activation)	-1.01	6.18	active
KANK2	1	no change	no change	1.57	-0.63	inactive
GGT1	1	no change	no change	0.24	1.51	inactive
KRT72	1	no change	no change	0.52	-0.52	inactive
CNTROB	1	no change	no change	-0.89	-0.18	inactive
MFAP2	1	no change	no change	1.11	1.97	inactive
CBFB	1	no change	no change	0.85	1	inactive
UEVLD	1	RV2 (reduced viability)	no change	-2.97	4.63	active
RASSF7	1	no change	no change	0.16	1.69	inactive
USP5	1	no change	no change	0.04	1.84	inactive
DARS1	1	no change	no change	-0.53	-0.08	inactive
C2orf68	1	no change	no change	-0.47	4.67	inactive
POSTN	1	no change	no change	0.45	0.54	inactive
ATAD3C	1	no change	no change	-0.02	-1	inactive
RPL27A	1	no change	no change	-5.05	-1.51	inactive
TMEM202	1	no change	no change	-0.5	-0.5	inactive
ZBTB48	1	no change	no change	-0.37	-0.73	inactive

5 entries from above, showing only “caspase hit class”:
IDS: no change
ELAC1: no change
IL10: no change
THRSP: no change
ZNF92: no change
